{"source": "PubChem BioAssay AID1508587 – Peter MacCallum Cancer Centre, 2020", "assay": "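Retest of knockdowns boosting BRAF inhibitor action on lactate release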 (follow-up of hits)", "cell system": "human WM266.4 melanoma cells with a BRAF V600 mutation", "reagents": "single siRNA against human genes, 25 nM", "duration": "96 h", "challenge": "vemurafenib 300 nM (about IC25), given 48 h after transfection for 48 h", "detection": "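Per-cell lactate from absorbance divided by DAPI nucleus counts, compared with and without vemurafenib, relative to non-targeting siRNA, mean of 2 replicates; nuclear counts also give cell number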", "direction": "lactate per cell, drug vs no drug: higher = less drug-induced drop in lactate per cell; lactate per cell with vemurafenib: higher = more lactate per cell under drug", "rule for the call": "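a duplex is active when its lactate-per-cell ratio with versus without drug falls under 0.55, i.e. 2 SD below non-targeting; a gene is confirmed if 2 or more of 4 duplexes pass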", "note": "Shown is one part, drawn at random, of about 1,600 reagents. 623 of all reagents (39%) count as active. 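Calls are for each duplex; lactate ratios contain extreme outliers.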 Reagents against one gene are numbered here. Further read-outs or replicates are left out here. Reagent sequences are not shown."}
{"gene":"LRFN2","reagent no.":1,"lactate per cell, drug vs no drug":0.49,"lactate per cell with vemurafenib":1.58,"Outcome":"active"}
{"gene":"LRFN2","reagent no.":2,"lactate per cell, drug vs no drug":1.03,"lactate per cell with vemurafenib":5.05,"Outcome":"inactive"}
{"gene":"LRFN2","reagent no.":3,"lactate per cell, drug vs no drug":0.38,"lactate per cell with vemurafenib":0.32,"Outcome":"active"}
{"gene":"LRFN2","reagent no.":4,"lactate per cell, drug vs no drug":0.84,"lactate per cell with vemurafenib":1.36,"Outcome":"inactive"}
{"gene":"CARD11 (caspase recruitment domain family member 11)","reagent no.":1,"lactate per cell, drug vs no drug":0.52,"lactate per cell with vemurafenib":0.76,"Outcome":"active"}
{"gene":"CARD11 (caspase recruitment domain family member 11)","reagent no.":2,"lactate per cell, drug vs no drug":0.38,"lactate per cell with vemurafenib":0.66,"Outcome":"active"}
{"gene":"CARD11 (caspase recruitment domain family member 11)","reagent no.":3,"lactate per cell, drug vs no drug":0.45,"lactate per cell with vemurafenib":1.16,"Outcome":"active"}
{"gene":"CARD11 (caspase recruitment domain family member 11)","reagent no.":4,"lactate per cell, drug vs no drug":0.64,"lactate per cell with vemurafenib":0.96,"Outcome":"inactive"}
{"gene":"H2AC17 (H2A clustered histone 17)","reagent no.":1,"lactate per cell, drug vs no drug":0.53,"lactate per cell with vemurafenib":2.25,"Outcome":"active"}
{"gene":"H2AC17 (H2A clustered histone 17)","reagent no.":2,"lactate per cell, drug vs no drug":0.55,"lactate per cell with vemurafenib":0.82,"Outcome":"inactive"}
{"gene":"H2AC17 (H2A clustered histone 17)","reagent no.":3,"lactate per cell, drug vs no drug":0.42,"lactate per cell with vemurafenib":0.52,"Outcome":"active"}
{"gene":"H2AC17 (H2A clustered histone 17)","reagent no.":4,"lactate per cell, drug vs no drug":0.74,"lactate per cell with vemurafenib":1.29,"Outcome":"inactive"}
{"gene":"THRSP (thyroid hormone responsive)","reagent no.":1,"lactate per cell, drug vs no drug":0.78,"lactate per cell with vemurafenib":6.26,"Outcome":"inactive"}
{"gene":"THRSP (thyroid hormone responsive)","reagent no.":2,"lactate per cell, drug vs no drug":0.63,"lactate per cell with vemurafenib":2.69,"Outcome":"inactive"}
{"gene":"THRSP (thyroid hormone responsive)","reagent no.":3,"lactate per cell, drug vs no drug":0.47,"lactate per cell with vemurafenib":0.95,"Outcome":"active"}
{"gene":"THRSP (thyroid hormone responsive)","reagent no.":4,"lactate per cell, drug vs no drug":0.71,"lactate per cell with vemurafenib":1.86,"Outcome":"inactive"}
{"gene":"KLC2 (kinesin light chain 2)","reagent no.":1,"lactate per cell, drug vs no drug":0.53,"lactate per cell with vemurafenib":0.88,"Outcome":"active"}
{"gene":"KLC2 (kinesin light chain 2)","reagent no.":2,"lactate per cell, drug vs no drug":0.31,"lactate per cell with vemurafenib":0.48,"Outcome":"active"}
{"gene":"KLC2 (kinesin light chain 2)","reagent no.":3,"lactate per cell, drug vs no drug":0.63,"lactate per cell with vemurafenib":2.23,"Outcome":"inactive"}
{"gene":"KLC2 (kinesin light chain 2)","reagent no.":4,"lactate per cell, drug vs no drug":0.61,"lactate per cell with vemurafenib":0.73,"Outcome":"inactive"}
{"gene":"SCLT1 (sodium channel and clathrin linker 1)","reagent no.":1,"lactate per cell, drug vs no drug":0.28,"lactate per cell with vemurafenib":1.13,"Outcome":"active"}
{"gene":"SCLT1 (sodium channel and clathrin linker 1)","reagent no.":2,"lactate per cell, drug vs no drug":0.51,"lactate per cell with vemurafenib":1.38,"Outcome":"active"}
{"gene":"SCLT1 (sodium channel and clathrin linker 1)","reagent no.":3,"lactate per cell, drug vs no drug":0.68,"lactate per cell with vemurafenib":1,"Outcome":"inactive"}
{"gene":"SCLT1 (sodium channel and clathrin linker 1)","reagent no.":4,"lactate per cell, drug vs no drug":0.61,"lactate per cell with vemurafenib":1.86,"Outcome":"inactive"}
{"gene":"ACP2 (acid phosphatase 2, lysosomal)","reagent no.":1,"lactate per cell, drug vs no drug":0.6,"lactate per cell with vemurafenib":0.82,"Outcome":"inactive"}
{"gene":"ACP2 (acid phosphatase 2, lysosomal)","reagent no.":2,"lactate per cell, drug vs no drug":0.54,"lactate per cell with vemurafenib":2.55,"Outcome":"active"}
{"gene":"ACP2 (acid phosphatase 2, lysosomal)","reagent no.":3,"lactate per cell, drug vs no drug":0.57,"lactate per cell with vemurafenib":1.84,"Outcome":"inactive"}
{"gene":"ACP2 (acid phosphatase 2, lysosomal)","reagent no.":4,"lactate per cell, drug vs no drug":0.62,"lactate per cell with vemurafenib":0.79,"Outcome":"inactive"}

2 neighbouring records from above, quoted:
{"gene":"KLC2 (kinesin light chain 2)","reagent no.":4,"lactate per cell, drug vs no drug":0.61,"lactate per cell with vemurafenib":0.73,"Outcome":"inactive"}
{"gene":"SCLT1 (sodium channel and clathrin linker 1)","reagent no.":1,"lactate per cell, drug vs no drug":0.28,"lactate per cell with vemurafenib":1.13,"Outcome":"active"}
